Experimental data taken from patent US20160264960A1.
These are yes or no findings as the source states them, for the method shown. Some binding calls cover weakened binding; strength is not graded here.

Sequences of proteins named here, by UniProt entry; tags and fusion partners are left off. A change or cut given only in a name is not applied to a line headed by its entry.
UniProt P08887: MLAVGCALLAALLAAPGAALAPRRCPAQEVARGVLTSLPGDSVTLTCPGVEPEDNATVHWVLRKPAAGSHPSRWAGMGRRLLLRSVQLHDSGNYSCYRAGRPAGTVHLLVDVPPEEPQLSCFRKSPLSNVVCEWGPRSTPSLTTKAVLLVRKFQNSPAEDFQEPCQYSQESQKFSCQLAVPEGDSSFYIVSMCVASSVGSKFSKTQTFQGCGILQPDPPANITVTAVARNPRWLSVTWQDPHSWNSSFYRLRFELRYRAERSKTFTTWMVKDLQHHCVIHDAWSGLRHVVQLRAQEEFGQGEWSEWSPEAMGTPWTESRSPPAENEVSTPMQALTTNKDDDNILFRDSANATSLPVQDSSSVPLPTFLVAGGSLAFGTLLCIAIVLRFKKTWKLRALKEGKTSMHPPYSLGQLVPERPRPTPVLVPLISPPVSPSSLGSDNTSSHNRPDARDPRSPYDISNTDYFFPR

Experiments:
mouse IgA (mouse) [1] = biological target: T1, mouse IgA (mouse) (UniProt P01878); test: phage ELISA of the Fab-displaying clones of Example 3 (PF1 L chain)
T1 sequence (looked up): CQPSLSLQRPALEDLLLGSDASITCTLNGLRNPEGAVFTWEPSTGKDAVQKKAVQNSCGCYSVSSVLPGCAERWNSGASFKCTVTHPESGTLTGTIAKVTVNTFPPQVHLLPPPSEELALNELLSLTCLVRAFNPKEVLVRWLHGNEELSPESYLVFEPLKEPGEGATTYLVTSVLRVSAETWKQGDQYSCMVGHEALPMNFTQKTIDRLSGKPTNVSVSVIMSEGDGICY

mouse IgA (mouse) [2] = biological target: T1, mouse IgA (mouse); test: BLI, Octet RED384; antibody on Protein G biosensor, antigen in solution
mouse IgA (mouse) [3] = biological target: T1, mouse IgA (mouse); test: biolayer interferometry (Octet RED384), antibody on Protein G biosensor, mouse IgA in solution, 120 s association and 120 s dissociation [a]
[4] = biological target: soluble human IL-6R (human) (UniProt P08887); test: phage ELISA of the Fab-displaying clones of Example 3 (PF1 L chain)
[5] = biological target: soluble human IL-6R (human) (UniProt P08887); test: BLI, Octet RED384; antibody on Protein G biosensor, antigen in solution
[6] = biological target: soluble human IL-6R (human) (UniProt P08887); test: biolayer interferometry (Octet RED384), antibody on Protein G biosensor, soluble human IL-6R in solution, 120 s association and 120 s dissociation [d]

Measured: binding

B1: mIANH-2_27 (antibody, human IgG1, kappa, V domains shown)
VH: EVQLVQSGAEVKKPGASVKVSCKASGYTFTGYYIHWVRQAPGQGLEWMGRINPNSGGTNYAQKFQGRVTMTRDTSISTAYMQLSRLRSDDTAVYYCARDNSGWGGFDAFDIWGQGTMVTVSS
VL: DIQMTQSPSSLSASVGDSVTITCQASQDISSYLNWYQQKPGKAPELLIYYGSELHSGVPSRFSGSGSGTDFTFTISSLEAEDAATYYCGQGNRLPYTFGQGTKVEIER
binds: mouse IgA (mouse) [1] | mouse IgA (mouse) [2] | mouse IgA (mouse) [3]

B2: 6RNH-2_42 (antibody, human IgG1, kappa, V domains shown)
VH: QVQLQESGPGLVKPSETLSLTCAVSGYSISDDHAWSWVRQPPGEGLEWIGYISYSGITNYNPSLKGRVTISRDTSKNQFSLKLSSVTAADTAAYYCARVLARITAMDYWGEGTLVTVSS
VL: B1 VL
binds: [4] | [5] | [6]
